# Results from PubChem BioAssay AID493014 (National Center for Advancing Translational Sciences (NCATS), 2011).
# The list shows a part of the results. The main result of the screen is listed elsewhere. These columns were measured beside it and carry no call. The list favours compounds with an active or inconclusive main result. Potencies come from curve fits of mixed quality, noted in brackets.
# Test: qHTS Assay to Find Inhibitors of Chronic Active B-Cell Receptor Signaling
# Details: ABC-DLBCL IkBa-CBG/CBR reporter, luminescence ratio (green luciferase fused to IkBa over red control in TMD8 lymphoma cells), 4 h
# Method in brief: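 Compounds up to 46 uM were incubated four hours with TMD8 cells whose green CBG68 luciferase is fused to IkappaBalpha; red CBR luminescence normalised the signal, and concentration-effect curves were fitted to fusion, red and ratio data.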
# [1] = measured here: CBR red luminescence, cell number
# [2] = measured here: IkBa-CBG green luminescence
SMILES,AC50 [1],AC50 [2]
COc1ccccc1NC(=O)Nc1nc(CC(=O)N2CCN(c3ccccc3F)CC2)cs1,"29.1 µM [falling, single point]",
CCOC(=O)c1c(NC(=O)/C=C/C(=O)O)sc(C)c1-c1ccc(C(C)(C)C)cc1,"31.6 µM [falling, single point]",
CCc1n[n+](CC(=O)c2ccccc2)c(N)s1,"7.94 µM [falling, partial curve, poor fit]",
COc1ccccc1N1C(=O)c2ccccc2NC1c1ccc(O)cc1 (configuration not stated),"11.2 µM [falling, partial curve, poor fit]",
COC(=O)c1cccc(NC(=O)NC(=O)c2ccc(Cl)cc2)c1,"0.1 µM [falling, full curve, poor fit]",
Cc1ccccc1OC(=O)C1C(c2ccccc2)C(C(=O)O)C1c1ccccc1 (configuration not stated),"14.6 µM [rising, partial curve]",
NNC(=O)CN1C(c2ccc(Cl)cc2)=Nc2ccc(Br)cc2C1c1ccccc1 (configuration not stated),"35.5 µM [falling, single point]",
CC(C)c1ccc(NC(=O)Nc2cnccn2)cc1,"0.355 µM [rising, full curve, poor fit]",
COc1ccccc1CN(Cc1cc2cc(C)ccc2[nH]c1=O)Cc1nnnn1Cc1ccco1,"17.8 µM [falling, single point]",
Cc1ccc(C(=O)NC(=S)Nc2cccnc2Cl)cc1,"15.8 µM [falling, partial curve]",
COCCC(=O)N1CCCC(C(=O)c2ccc3c4c(cccc24)CC3)C1 (configuration not stated),"35.5 µM [falling, single point]",
CC(=O)c1nnn(-c2c(F)cccc2F)c1C,"0.501 µM [rising, full curve, poor fit]",
Cc1c(C(=O)N2CCCC(C(F)(F)F)C2)oc2ccccc12 (configuration not stated),"1.03 µM [rising, full curve, poor fit]",
COc1cccc(-c2cc(C(=O)NCc3cccs3)no2)c1,"22.4 µM [falling, single point]",
COc1ccccc1CCNC(=O)C(=O)NCC(c1ccco1)S(=O)(=O)c1ccc(F)cc1 (configuration not stated),"1.78 µM [rising, partial curve, poor fit]",
Cc1nc2ccc(C(=O)O)cc2c2c1CC(C)S2 (configuration not stated),"1.64 µM [rising, full curve]","1.16 µM [rising, partial curve, poor fit]"
Cc1ccsc1/C=N/NC(=O)c1ccc2nc[nH]c2c1,"18.4 µM [falling, partial curve]",
COc1ccc(OC)c(N2CC(O)=C(c3nc4ccccc4s3)C2=N)c1,"12.6 µM [falling, partial curve, poor fit]","35.5 µM [rising, partial curve, poor fit]"
COc1ccc(C(=O)Nn2c(SCc3ccc([N+](=O)[O-])cc3)nc3ccccc3c2=O)cc1,"12.6 µM [falling, partial curve]",
CCOc1ccc2[nH]c3c(N4CCc5ccccc5C4)ncnc3c2c1,"14.1 µM [falling, partial curve]","7.94 µM [rising, partial curve, poor fit]"
O=C(CCCSc1ccccc1)Nc1ccc(Cl)c(S(=O)(=O)N2CCOCC2)c1,"32.6 µM [falling, single point]",

SMILES,AC50 [1],AC50 [2]
O=C1NC(=O)C(CC(=O)N(Cc2cccs2)C2(C(=O)NC3CCCC3)CCCCC2)N1 (configuration not stated),"1.64 µM [falling, partial curve]",
O=C(/C=C/c1ccc(Cl)cc1Cl)NC(=S)Nc1ccccn1,"10 µM [falling, partial curve, poor fit]",
COc1ccc(Nc2nc(S(=O)(=O)c3ccc(C)cc3)c(Cl)s2)cc1,"5.17 µM [falling, full curve, poor fit]",
C(=N/Nc1cc(N2CCOCC2)nc(N2CCOCC2)n1)/c1ccccc1,"18.4 µM [falling, single point]",
CCn1c(CN2CCN(C(c3ccccc3)c3ccccc3)CC2)nc2c1c(=O)n(C)c(=O)n2C,"11.2 µM [falling, partial curve]",
COc1ccc(-c2ccc(SCC(=O)Nc3cc(C)on3)nn2)cc1OC,"23.1 µM [falling, single point]",
CCOc1ccc(-c2cc(CCCC(=O)NCCC(C)C)no2)cc1,"6.31 µM [falling, partial curve, poor fit]",
N#CC1=C(N)OC2=C(C(=O)CC(c3ccccc3)C2)C1c1cccnc1 (configuration not stated),"32.6 µM [falling, single point]",
Cc1nnc(NC(=O)c2cc(-c3ccco3)nc3ccccc23)s1,"23.1 µM [falling, partial curve, poor fit]",
N/C(=N\OC(=O)c1ccc(Cl)cc1Cl)c1cccnc1,"0.708 µM [rising, full curve, poor fit]",
N#CCCN1CCN(S(=O)(=O)c2ccc3c(c2)OCCCO3)CC1,"32.6 µM [rising, single point]",
Cc1cccc(C(=O)Nc2nccs2)c1[N+](=O)[O-],"18.4 µM [falling, single point]",
COc1ccc(C(=O)N/C(=C\c2cccc3ccccc23)C(=O)NCCc2c[nH]c3ccccc23)cc1OC,"2.82 µM [falling, partial curve, poor fit]",
Cn1cc(Br)c(C(=O)Nc2sc3c(c2C#N)CCC3)n1,"3.16 µM [rising, full curve, poor fit]",
O=C(OCc1ccccc1F)c1cc2ccccc2cc1O,"15.8 µM [rising, partial curve, poor fit]",
CN(Cc1ccccc1)c1nc(N)c([N+](=O)[O-])c(NCc2ccccc2)n1,"3.66 µM [rising, full curve, poor fit]",
COc1ccc(N/C(=C(/C(Cl)=C(Cl)Cl)[N+](=O)[O-])n2nnc3ccccc32)cc1,"0.00461 µM [falling, full curve, poor fit]",
COc1ccc(C2=NS(=O)(=O)N(C)C(C(=O)N3CCC(C)CC3)=C2)cc1,"0.501 µM [rising, full curve, poor fit]",
CS(=O)(=O)NCCSCc1c(Cl)cccc1Cl,"7.31 µM [rising, partial curve, poor fit]",
O=C(/C=C/c1cn(CC(O)CN2CCCCC2)c2ccccc12)c1ccccc1 (configuration not stated),"10 µM [falling, partial curve, poor fit]",
CCOC(=O)N1CCC(NC(=O)Cn2ncc3ccccc32)CC1,"2.59 µM [rising, single point]",

SMILES,AC50 [1],AC50 [2]
CCC(CO)Oc1cc(NCc2ccc(O)cc2)c2ncn(C(C)C)c2c1 (configuration not stated),"0.291 µM [rising, full curve, poor fit]",
COc1ccc(Cl)cc1NC(=O)CN(C)C(=O)Cc1ccc(-c2ccccc2)cc1,"29.1 µM [falling, single point]",
Cc1cccc(C(=O)N/N=C/c2ccccn2)c1,"16.4 µM [falling, single point]",
CCCCCNc1nc(NCCCO)c(C#N)c2c1CN(C)CC2,"9.2 µM [rising, partial curve, poor fit]",
Cc1nc(-c2ccccc2)sc1-c1ccn[nH]1,"12.6 µM [falling, single point]",
CCOC(=O)CCSc1nc(C)c2cc(C)ccc2n1,"0.291 µM [rising, full curve, poor fit]",
Cn1cc(/C=C/c2cc[n+](C)cc2)c2cc(Cl)ccc21,"0.631 µM [falling, full curve, poor fit]",
Cc1ccc(S(=O)(=O)Nc2ccc(NC(=O)Nc3cccc(C(F)(F)F)c3)cc2)cc1,"16.4 µM [falling, partial curve, poor fit]",
COCC(=O)Nc1ccc(C(=O)Nc2ccccc2Cl)cc1,"10 µM [falling, partial curve, poor fit]",
CCN(CC)c1ccc(/C=N\NC(=O)c2cccc3cc[nH]c23)cc1,"35.5 µM [falling, partial curve, poor fit]","20 µM [falling, single point]"
Cn1c(=O)c2c(nc(Oc3cccc(O)c3)n2C)n(C)c1=O,"1.26 µM [falling, partial curve, poor fit]",
Clc1ccc(-c2nnc3n2-c2ccccc2SC3)cc1,"35.5 µM [falling, single point]",
Cc1ccccc1-n1c(-c2csc(C)c2C)n[nH]c1=S,"23.1 µM [falling, partial curve, poor fit]",
CCN1CCN(C(=O)c2cc3cc(Cl)ccc3[nH]2)CC1,"31.6 µM [falling, single point]",
COC(=O)c1c(-c2ccco2)csc1NC(=O)C1CC=CCC1C(=O)O (configuration not stated),"0.501 µM [falling, partial curve, poor fit]",
CC(C)Cc1nc2oc3c(NCC4CCCO4)ncnc3c2c2c1CCC2 (configuration not stated),"1.41 µM [rising, full curve, poor fit]",
Cc1cccc(C(=O)NCC(c2ccco2)N(C)C)c1 (configuration not stated),"35.5 µM [rising, partial curve, poor fit]",
CCc1nn2c(=O)cc(CSc3nc(C)cc(=O)[nH]3)nc2s1,"1.46 µM [rising, partial curve, poor fit]",
COCCn1c(SCC(=O)Nc2ccc(S(=O)(=O)N3CCOCC3)cc2)nc2ccccc21,"15.8 µM [falling, single point]",
Cc1ccc(-c2cc(-c3ccccc3C)[nH]n2)c(O)c1,"29.1 µM [falling, single point]","18.4 µM [rising, partial curve, poor fit]"

# Entries above that have an aryl methoxy group (13):
SMILES,AC50 [1],AC50 [2]
COc1ccccc1NC(=O)Nc1nc(CC(=O)N2CCN(c3ccccc3F)CC2)cs1,"29.1 µM [falling, single point]",
COc1ccccc1N1C(=O)c2ccccc2NC1c1ccc(O)cc1 (configuration not stated),"11.2 µM [falling, partial curve, poor fit]",
COc1ccccc1CN(Cc1cc2cc(C)ccc2[nH]c1=O)Cc1nnnn1Cc1ccco1,"17.8 µM [falling, single point]",
COc1cccc(-c2cc(C(=O)NCc3cccs3)no2)c1,"22.4 µM [falling, single point]",
COc1ccccc1CCNC(=O)C(=O)NCC(c1ccco1)S(=O)(=O)c1ccc(F)cc1 (configuration not stated),"1.78 µM [rising, partial curve, poor fit]",
COc1ccc(OC)c(N2CC(O)=C(c3nc4ccccc4s3)C2=N)c1,"12.6 µM [falling, partial curve, poor fit]","35.5 µM [rising, partial curve, poor fit]"
COc1ccc(C(=O)Nn2c(SCc3ccc([N+](=O)[O-])cc3)nc3ccccc3c2=O)cc1,"12.6 µM [falling, partial curve]",
COc1ccc(Nc2nc(S(=O)(=O)c3ccc(C)cc3)c(Cl)s2)cc1,"5.17 µM [falling, full curve, poor fit]",
COc1ccc(-c2ccc(SCC(=O)Nc3cc(C)on3)nn2)cc1OC,"23.1 µM [falling, single point]",
COc1ccc(C(=O)N/C(=C\c2cccc3ccccc23)C(=O)NCCc2c[nH]c3ccccc23)cc1OC,"2.82 µM [falling, partial curve, poor fit]",
COc1ccc(N/C(=C(/C(Cl)=C(Cl)Cl)[N+](=O)[O-])n2nnc3ccccc32)cc1,"0.00461 µM [falling, full curve, poor fit]",
COc1ccc(C2=NS(=O)(=O)N(C)C(C(=O)N3CCC(C)CC3)=C2)cc1,"0.501 µM [rising, full curve, poor fit]",
COc1ccc(Cl)cc1NC(=O)CN(C)C(=O)Cc1ccc(-c2ccccc2)cc1,"29.1 µM [falling, single point]",

# No new results follow: an excerpt of the list.
SMILES,AC50 [1],AC50 [2]
CCOc1ccc(-c2cc(CCCC(=O)NCCC(C)C)no2)cc1,"6.31 µM [falling, partial curve, poor fit]",
N#CC1=C(N)OC2=C(C(=O)CC(c3ccccc3)C2)C1c1cccnc1 (configuration not stated),"32.6 µM [falling, single point]",
